This note sets out measurements from paper PMC12022016.

Chains of the proteins cited; added tags and fusions are not shown. Lines headed by an entry give the natural chain unless they say otherwise; changes in a name come on top.
UniProt Q01105: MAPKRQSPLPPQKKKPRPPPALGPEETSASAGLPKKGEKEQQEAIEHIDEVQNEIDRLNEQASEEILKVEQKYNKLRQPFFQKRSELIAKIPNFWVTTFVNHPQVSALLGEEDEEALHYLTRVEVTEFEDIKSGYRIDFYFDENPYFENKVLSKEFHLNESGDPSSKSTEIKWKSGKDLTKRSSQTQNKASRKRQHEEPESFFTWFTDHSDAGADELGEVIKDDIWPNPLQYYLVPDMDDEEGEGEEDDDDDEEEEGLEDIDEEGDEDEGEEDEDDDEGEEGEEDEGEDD
UniProt P62714: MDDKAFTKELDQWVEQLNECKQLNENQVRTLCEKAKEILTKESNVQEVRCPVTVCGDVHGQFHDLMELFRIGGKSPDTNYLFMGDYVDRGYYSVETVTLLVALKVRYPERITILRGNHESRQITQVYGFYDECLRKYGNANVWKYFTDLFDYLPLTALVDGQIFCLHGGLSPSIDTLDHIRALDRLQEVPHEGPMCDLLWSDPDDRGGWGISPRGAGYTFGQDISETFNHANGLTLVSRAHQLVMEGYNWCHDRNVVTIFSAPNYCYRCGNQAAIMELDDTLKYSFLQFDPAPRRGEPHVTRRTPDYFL
UniProt P30153: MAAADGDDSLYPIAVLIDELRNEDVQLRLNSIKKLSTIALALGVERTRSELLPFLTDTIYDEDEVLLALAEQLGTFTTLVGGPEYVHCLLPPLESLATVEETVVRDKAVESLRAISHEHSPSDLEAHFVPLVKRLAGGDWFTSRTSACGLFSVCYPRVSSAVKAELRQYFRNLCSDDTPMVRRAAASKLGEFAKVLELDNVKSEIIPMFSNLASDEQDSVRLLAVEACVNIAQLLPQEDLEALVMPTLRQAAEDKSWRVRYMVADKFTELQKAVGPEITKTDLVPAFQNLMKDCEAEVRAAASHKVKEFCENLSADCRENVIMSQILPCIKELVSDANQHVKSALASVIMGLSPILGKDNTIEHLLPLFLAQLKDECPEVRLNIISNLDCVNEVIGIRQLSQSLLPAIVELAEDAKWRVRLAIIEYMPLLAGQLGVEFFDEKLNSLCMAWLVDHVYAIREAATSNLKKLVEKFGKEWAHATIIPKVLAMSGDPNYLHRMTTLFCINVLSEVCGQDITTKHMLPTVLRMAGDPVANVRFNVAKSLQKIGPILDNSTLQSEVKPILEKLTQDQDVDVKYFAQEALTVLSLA

Results are given in words; binding and its absence hold for the method and conditions named. Binding seen in cells or lysates may run through a third protein. Some entries that bind do so weakly or less than the wild type.

The target of one test is SET (human) (UniProt Q01105). Description: co-IP; LO2 cells with or without TTC36 knockout, and with Ttc36 re-expressed; immunoprecipitation with GFP magnetic beads, immunoblotting. A general note: In western blotting, separated proteins are transferred to a membrane and probed.
The target of the next test is T1, TTC36 (human) (UniProt A6NLP5).
T1 sequence: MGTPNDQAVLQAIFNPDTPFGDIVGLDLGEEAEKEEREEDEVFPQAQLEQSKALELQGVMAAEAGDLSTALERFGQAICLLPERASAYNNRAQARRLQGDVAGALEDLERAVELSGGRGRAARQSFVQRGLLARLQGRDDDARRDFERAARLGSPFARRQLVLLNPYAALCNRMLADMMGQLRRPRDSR
Description: co-IP; HEK-293T cells and LO2 cells transfected with the specified plasmids (Ttc36 overexpression); immunoprecipitation with GFP magnetic beads, immunoblotting.

Regarding PP2ACB (from UniProt P62714 1-309), the binding result with SET (human) is on record as “binds”. In the case of SET (from UniProt Q01105-1 1-290), the binding entry with TTC36 (human) is “binds”. Turning to PPP2R1A (from UniProt P30153 1-589), the binding entry with TTC36 (human) and in the test with SET (human) was “binds” in each case.
